{"source": "the supplement of paper PMC4683952", "note": "The list shows a part of the results. Cut-off read from the data, not from the text of the source: active = 2 or more and inactive = the rest. This data set is noisy: repeats of one test often differ as much as different tests do."}
{"test_system": "Lgr5 (MarsCy1-Lgr5-EGFP, U2OS)", "assay": "cell-surface Lgr5 expression (SCi1 fluorescence, background-subtracted) relative to WT DMSO (fold of DMSO control); higher = more Lgr5 at the plasma membrane", "conditions": "U2OS MarsCy1-Lgr5-EGFP stable; treatment time: overnight; library: ActiProbe-5K (TimTec); 25 µM"}
{"smiles": "CN1C(=O)CN(C(=O)OC(C)(C)C)[C@@H]1C(C)(C)C", "cell-surface Lgr5 expression": "inactive: 1.09"}
{"smiles": "O=c1c2cccc3cccc(c32)c2nc3ccccc3n12", "cell-surface Lgr5 expression": "inactive: 1.34"}
{"smiles": "NC(=O)c1cnn2cc(-c3n[nH]cc3[N+](=O)[O-])cnc12", "cell-surface Lgr5 expression": "inactive: 1.03"}
{"smiles": "CCS(=O)(=O)c1ccc(S(=O)(=O)CC)s1", "cell-surface Lgr5 expression": "inactive: 1.15"}
{"smiles": "O=[N+]([O-])c1cc(Br)c2nsnc2c1N1CCCCCC1", "cell-surface Lgr5 expression": "inactive: 1.21"}
{"smiles": "Nc1cc(Br)cc2cccnc12", "cell-surface Lgr5 expression": "inactive: 1.05"}
{"smiles": "FC(F)(F)c1nnc2ccc(N3CCOCC3)nn12", "cell-surface Lgr5 expression": "inactive: 1.42"}
{"smiles": "c1cc(-c2nn3c(C4CCCCC4)nnc3s2)ccn1", "cell-surface Lgr5 expression": "inactive: 1.15"}
{"smiles": "FC(F)(F)Oc1ccc(/N=C\\c2ccc[nH]2)cc1", "cell-surface Lgr5 expression": "inactive: 0.983"}
{"smiles": "CCn1c(S)nc2c(=O)[nH]cnc21", "cell-surface Lgr5 expression": "inactive: 1.26"}
{"smiles": "C=CCn1c(=O)n([C@@H]2O[C@H](CO)[C@@H](O)[C@H]2O)c2nc(N)[nH]c(=O)c21", "cell-surface Lgr5 expression": "inactive: 1.14"}
{"smiles": "Cn1cccc1/C=N/NC(=O)c1cccs1", "cell-surface Lgr5 expression": "inactive: 1.42"}
{"smiles": "Cc1cc2c(cc1C)CSC(c1ccc(N(C)C)cc1)SC2", "cell-surface Lgr5 expression": "inactive: 0.982"}
{"smiles": "NC(=O)C[n+]1ccc(CCS(=O)(=O)[O-])cc1", "cell-surface Lgr5 expression": "inactive: 1.52"}
{"smiles": "CC(=O)NC1=NN(C(C)=O)C(c2ccc(Br)s2)S1", "note": "(centres undefined)", "cell-surface Lgr5 expression": "inactive: 1.36"}
{"smiles": "O=C(Nc1ccc(Cl)c(Cl)c1)OC1CC2CCC13CCCC23", "note": "(centres undefined)", "cell-surface Lgr5 expression": "inactive: 0.792"}
{"smiles": "N#CC1=C(NC(=O)c2ccn(C(F)F)n2)CCC1", "cell-surface Lgr5 expression": "inactive: 1.05"}
{"smiles": "CCCN1CC=C2C(C#N)=C(N)C(C#N)(C#N)C(CC)C2C1", "note": "(centres undefined)", "cell-surface Lgr5 expression": "inactive: 1.08"}
{"smiles": "c1ccc2[nH]c(-c3nc4ccccc4[nH]3)nc2c1", "cell-surface Lgr5 expression": "inactive: 0.913"}
{"smiles": "Nc1nonc1-c1ccccn1", "cell-surface Lgr5 expression": "inactive: 0.761"}
{"smiles": "NNc1cccc2ncccc12", "cell-surface Lgr5 expression": "inactive: 0.785"}
{"smiles": "O=C1NC(=S)N/C1=C/c1ccc(-c2ccc3c(c2)C(=O)NC3=O)o1", "cell-surface Lgr5 expression": "active: 2.35"}
{"smiles": "COc1cc(-c2nc3sc(-c4cc(OC)c(OC)c(OC)c4)nc3s2)cc(OC)c1OC", "cell-surface Lgr5 expression": "inactive: 1.2"}
{"smiles": "O=C(N/N=C/c1ccco1)c1ccco1", "cell-surface Lgr5 expression": "inactive: 1.11"}
{"smiles": "COc1cc(CSc2nnc(C34CC5CC(CC(C5)C3)C4)o2)cc(OC)c1OC", "cell-surface Lgr5 expression": "inactive: 1.02"}
{"smiles": "Cn1ncc(Cl)c1C(=O)NN", "cell-surface Lgr5 expression": "inactive: 1.24"}
{"smiles": "NS(=O)(=O)c1ccc(CNS(=O)(=O)c2cc(Cl)ccc2Cl)cc1", "cell-surface Lgr5 expression": "inactive: 1.31"}
{"smiles": "O=C(O)CC(S/C(=N/C1C=CCCC1)N1CCCCC1)C(=O)O", "note": "(centres undefined)", "cell-surface Lgr5 expression": "inactive: 1.03"}
{"smiles": "COc1ccc(-c2nnc(S)o2)cc1OC", "cell-surface Lgr5 expression": "inactive: 1.55"}
{"smiles": "CC1(C)OCCN2C(=O)OC3(C)CCC1C23C", "note": "(centres undefined)", "cell-surface Lgr5 expression": "inactive: 0.855"}
{"smiles": "Cc1ccc(C2C(C(=O)c3ccco3)=C(O)C(=O)N2CCN2CCOCC2)o1", "note": "(centres undefined)", "cell-surface Lgr5 expression": "inactive: 1.07"}
{"smiles": "Cn1cc(-c2cc(C(F)F)c3c(C4CC4)nn(C)c3n2)cn1", "cell-surface Lgr5 expression": "inactive: 1.12"}
{"smiles": "CC1(C)C2C[C@@H]1CC=C2CCO", "cell-surface Lgr5 expression": "inactive: 1.24"}
{"smiles": "COc1ccc(S(=O)(=O)c2ccc(OC)c(OC)c2)cc1OC", "cell-surface Lgr5 expression": "inactive: 1.33"}
{"smiles": "C(=N/N1CCN(C2c3ccccc3-c3ccccc32)CC1)/c1cccnc1", "cell-surface Lgr5 expression": "inactive: 0.874"}
{"smiles": "CCOC(=O)/C=C(/C)Nc1nonc1NC(C)=O", "cell-surface Lgr5 expression": "inactive: 1.08"}
{"smiles": "O=C1NC(=S)S/C1=C/C1=C(O)C=CCC1", "cell-surface Lgr5 expression": "inactive: 1.19"}
{"smiles": "CCC1C(C#N)=C(N)OC2=C1C(=O)OC1C=CC=CC21", "note": "(centres undefined)", "cell-surface Lgr5 expression": "inactive: 0.825"}
{"smiles": "N#CC1=C(N)NC(S)=C(C#N)C12CCCCC2", "cell-surface Lgr5 expression": "inactive: 1.15"}
{"smiles": "Cc1noc(C)c1NC(=O)C1CCN(S(C)(=O)=O)CC1", "cell-surface Lgr5 expression": "inactive: 0.97"}
{"smiles": "CC(C)C1(C(C)C)OCCO1", "cell-surface Lgr5 expression": "inactive: 1.15"}
{"smiles": "COC(=O)CCCC[C@H]1SC[C@@H](NC(C)=O)[C@@H]1OC(C)=O", "cell-surface Lgr5 expression": "inactive: 1.29"}
{"smiles": "Cc1ccc(S(=O)OC2CC(C)CC[C@H]2C(C)C)cc1", "note": "(some centres undefined)", "cell-surface Lgr5 expression": "inactive: 1.29"}
{"smiles": "O=C1Nc2ccc3cn[nH]c3c2C1=O", "cell-surface Lgr5 expression": "inactive: 1.17"}
{"smiles": "c1csc(C2=N[C@@H](c3cccs3)[C@@H](c3cccs3)N2)c1", "cell-surface Lgr5 expression": "inactive: 1.64"}
{"smiles": "COc1cc(OC)c(C2C(C#N)=C(N)SC(N)=C2C#N)cc1OC", "cell-surface Lgr5 expression": "inactive: 0.989"}
{"smiles": "S=C(Nc1ccccc1)NN1CCN(C2c3ccccc3-c3ccccc32)CC1", "cell-surface Lgr5 expression": "inactive: 0.844"}
{"smiles": "C/C(=N/NC(=O)c1ccoc1C)c1ccco1", "cell-surface Lgr5 expression": "inactive: 0.985"}
{"smiles": "Cc1ccc(/C=N/n2c(S)nnc2-c2ccc(C(C)(C)C)cc2)cc1", "cell-surface Lgr5 expression": "inactive: 0.859"}
{"smiles": "C=CCNc1nc(N)c(C(=O)C23CC4CC(CC(C4)C2)C3)s1", "cell-surface Lgr5 expression": "inactive: 0.997"}
{"smiles": "CS(=O)(=O)N1CCCc2ccccc21", "cell-surface Lgr5 expression": "inactive: 1.07"}
{"smiles": "CCOC(=O)C(=O)c1nccn1C", "cell-surface Lgr5 expression": "inactive: 1.26"}
{"smiles": "CC1(C)COCC(C)(C)N1", "cell-surface Lgr5 expression": "inactive: 1.18"}
{"smiles": "O=C(O)CC(C(=O)OCC1CCCO1)N1CCOCC1", "note": "(centres undefined)", "cell-surface Lgr5 expression": "inactive: 1.05"}
